Laboratory results from the supplement of paper PMC10849652.
The list shows a part of the results.

Amino acid sequences for entries named in this document (tags omitted). A change or cut given only in a name is not applied to a line headed by its entry.
UniProt Q9UJV9: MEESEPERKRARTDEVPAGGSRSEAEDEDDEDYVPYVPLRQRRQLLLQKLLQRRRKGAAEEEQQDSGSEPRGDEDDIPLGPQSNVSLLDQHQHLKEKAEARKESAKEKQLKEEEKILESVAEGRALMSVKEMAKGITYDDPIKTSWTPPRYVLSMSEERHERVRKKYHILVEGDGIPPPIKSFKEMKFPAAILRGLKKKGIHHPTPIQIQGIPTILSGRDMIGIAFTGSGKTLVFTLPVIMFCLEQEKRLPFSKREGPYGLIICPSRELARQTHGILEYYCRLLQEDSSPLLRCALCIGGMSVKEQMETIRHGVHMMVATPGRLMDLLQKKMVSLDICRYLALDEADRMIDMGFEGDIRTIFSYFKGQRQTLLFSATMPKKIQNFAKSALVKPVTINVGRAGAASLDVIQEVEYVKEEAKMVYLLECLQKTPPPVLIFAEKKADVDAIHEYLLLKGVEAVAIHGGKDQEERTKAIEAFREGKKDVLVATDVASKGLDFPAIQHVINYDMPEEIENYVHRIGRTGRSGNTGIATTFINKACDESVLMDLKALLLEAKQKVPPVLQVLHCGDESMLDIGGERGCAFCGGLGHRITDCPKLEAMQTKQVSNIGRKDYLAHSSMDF
UniProt Q8IWF6: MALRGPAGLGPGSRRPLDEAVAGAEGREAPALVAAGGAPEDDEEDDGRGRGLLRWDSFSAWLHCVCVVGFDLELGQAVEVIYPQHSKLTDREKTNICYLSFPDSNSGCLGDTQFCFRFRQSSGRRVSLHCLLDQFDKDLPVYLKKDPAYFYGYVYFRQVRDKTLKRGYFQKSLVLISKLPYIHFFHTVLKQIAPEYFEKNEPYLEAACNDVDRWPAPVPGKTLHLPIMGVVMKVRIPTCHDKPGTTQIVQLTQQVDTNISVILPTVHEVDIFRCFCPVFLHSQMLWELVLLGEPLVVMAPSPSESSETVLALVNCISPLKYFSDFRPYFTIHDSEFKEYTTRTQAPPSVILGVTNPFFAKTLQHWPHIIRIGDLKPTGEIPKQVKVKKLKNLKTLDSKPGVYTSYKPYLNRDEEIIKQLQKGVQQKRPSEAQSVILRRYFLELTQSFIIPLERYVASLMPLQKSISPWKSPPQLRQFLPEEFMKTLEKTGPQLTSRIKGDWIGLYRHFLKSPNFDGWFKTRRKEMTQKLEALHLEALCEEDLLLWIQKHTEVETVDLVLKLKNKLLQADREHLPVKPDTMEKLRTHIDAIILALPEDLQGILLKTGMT
UniProt Q5TAQ9: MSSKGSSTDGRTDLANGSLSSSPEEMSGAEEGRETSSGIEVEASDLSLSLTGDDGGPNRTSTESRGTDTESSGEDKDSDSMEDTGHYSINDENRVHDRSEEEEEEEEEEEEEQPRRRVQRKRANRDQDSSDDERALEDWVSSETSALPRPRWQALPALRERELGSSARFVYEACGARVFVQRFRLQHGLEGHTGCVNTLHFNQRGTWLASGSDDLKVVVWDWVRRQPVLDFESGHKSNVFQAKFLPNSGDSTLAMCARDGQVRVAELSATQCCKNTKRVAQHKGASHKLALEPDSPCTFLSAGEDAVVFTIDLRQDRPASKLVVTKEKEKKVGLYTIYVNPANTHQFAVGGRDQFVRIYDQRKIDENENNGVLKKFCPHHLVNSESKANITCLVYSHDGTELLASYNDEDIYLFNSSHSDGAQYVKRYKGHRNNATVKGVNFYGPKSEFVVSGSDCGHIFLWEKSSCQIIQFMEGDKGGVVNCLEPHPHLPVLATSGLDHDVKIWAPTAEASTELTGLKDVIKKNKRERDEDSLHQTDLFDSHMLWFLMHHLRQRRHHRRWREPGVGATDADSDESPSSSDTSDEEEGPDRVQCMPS
UniProt O95865: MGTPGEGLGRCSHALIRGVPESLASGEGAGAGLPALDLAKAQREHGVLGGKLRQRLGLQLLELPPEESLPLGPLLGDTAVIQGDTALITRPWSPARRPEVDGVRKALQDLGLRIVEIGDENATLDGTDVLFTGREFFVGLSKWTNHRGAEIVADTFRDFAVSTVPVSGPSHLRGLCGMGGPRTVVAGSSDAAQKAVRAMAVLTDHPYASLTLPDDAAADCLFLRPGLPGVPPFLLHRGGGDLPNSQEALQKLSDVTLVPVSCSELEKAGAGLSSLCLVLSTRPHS
UniProt Q96HY6: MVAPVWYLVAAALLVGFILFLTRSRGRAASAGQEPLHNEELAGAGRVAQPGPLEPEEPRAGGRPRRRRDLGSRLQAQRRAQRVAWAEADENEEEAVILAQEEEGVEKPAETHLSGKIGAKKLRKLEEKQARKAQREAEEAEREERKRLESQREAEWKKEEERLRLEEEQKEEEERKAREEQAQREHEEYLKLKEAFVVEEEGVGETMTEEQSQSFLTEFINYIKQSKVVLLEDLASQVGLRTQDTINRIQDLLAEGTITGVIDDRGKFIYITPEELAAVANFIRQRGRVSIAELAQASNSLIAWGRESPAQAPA
UniProt P0CG12: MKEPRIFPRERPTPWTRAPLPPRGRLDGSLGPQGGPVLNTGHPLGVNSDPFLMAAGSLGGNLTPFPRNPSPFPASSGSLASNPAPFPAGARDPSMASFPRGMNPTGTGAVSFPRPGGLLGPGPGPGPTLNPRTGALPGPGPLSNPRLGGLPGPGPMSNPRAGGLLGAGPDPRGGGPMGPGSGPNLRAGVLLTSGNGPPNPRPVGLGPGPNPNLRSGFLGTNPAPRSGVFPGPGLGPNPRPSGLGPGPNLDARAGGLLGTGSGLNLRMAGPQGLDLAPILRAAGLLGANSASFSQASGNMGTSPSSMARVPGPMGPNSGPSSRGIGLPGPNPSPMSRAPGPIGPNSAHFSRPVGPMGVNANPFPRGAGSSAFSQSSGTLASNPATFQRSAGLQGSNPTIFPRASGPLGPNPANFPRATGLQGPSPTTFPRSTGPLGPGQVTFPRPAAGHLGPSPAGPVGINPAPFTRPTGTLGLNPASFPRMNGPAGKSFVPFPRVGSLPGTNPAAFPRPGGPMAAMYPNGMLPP
UniProt O75935, whole entry, looked up: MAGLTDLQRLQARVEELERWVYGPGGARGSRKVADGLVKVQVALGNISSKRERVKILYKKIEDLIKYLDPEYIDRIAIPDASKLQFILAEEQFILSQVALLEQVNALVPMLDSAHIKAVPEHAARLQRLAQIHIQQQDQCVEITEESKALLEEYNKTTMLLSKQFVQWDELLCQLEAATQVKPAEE
UniProt Q8NHQ9: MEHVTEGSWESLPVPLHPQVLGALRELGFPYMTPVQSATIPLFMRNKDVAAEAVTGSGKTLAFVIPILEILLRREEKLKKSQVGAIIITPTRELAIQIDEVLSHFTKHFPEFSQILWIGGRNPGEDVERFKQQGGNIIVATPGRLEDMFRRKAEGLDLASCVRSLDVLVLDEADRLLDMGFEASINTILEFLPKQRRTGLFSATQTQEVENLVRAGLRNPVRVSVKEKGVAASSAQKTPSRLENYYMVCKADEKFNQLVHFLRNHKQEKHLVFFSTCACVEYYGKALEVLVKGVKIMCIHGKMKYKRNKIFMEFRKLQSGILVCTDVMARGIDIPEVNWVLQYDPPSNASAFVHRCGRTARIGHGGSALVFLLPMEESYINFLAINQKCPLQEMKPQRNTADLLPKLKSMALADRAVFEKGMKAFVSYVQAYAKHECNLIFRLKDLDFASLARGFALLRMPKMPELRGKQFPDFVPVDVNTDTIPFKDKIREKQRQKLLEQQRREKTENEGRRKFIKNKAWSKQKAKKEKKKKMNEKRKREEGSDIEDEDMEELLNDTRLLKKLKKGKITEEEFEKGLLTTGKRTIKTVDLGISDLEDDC
UniProt P39656: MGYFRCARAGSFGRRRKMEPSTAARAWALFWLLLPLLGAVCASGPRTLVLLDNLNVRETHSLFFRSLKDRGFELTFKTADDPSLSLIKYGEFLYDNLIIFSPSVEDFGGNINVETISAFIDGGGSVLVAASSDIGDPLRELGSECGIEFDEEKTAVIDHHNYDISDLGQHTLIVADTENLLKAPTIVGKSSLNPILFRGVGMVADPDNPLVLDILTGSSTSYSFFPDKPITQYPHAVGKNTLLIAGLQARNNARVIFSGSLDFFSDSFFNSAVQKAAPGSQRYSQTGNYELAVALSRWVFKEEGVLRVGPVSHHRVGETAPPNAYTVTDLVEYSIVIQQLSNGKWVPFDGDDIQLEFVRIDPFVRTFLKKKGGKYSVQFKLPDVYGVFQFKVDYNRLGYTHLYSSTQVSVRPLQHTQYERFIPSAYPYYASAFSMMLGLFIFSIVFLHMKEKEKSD
UniProt Q9BUN8: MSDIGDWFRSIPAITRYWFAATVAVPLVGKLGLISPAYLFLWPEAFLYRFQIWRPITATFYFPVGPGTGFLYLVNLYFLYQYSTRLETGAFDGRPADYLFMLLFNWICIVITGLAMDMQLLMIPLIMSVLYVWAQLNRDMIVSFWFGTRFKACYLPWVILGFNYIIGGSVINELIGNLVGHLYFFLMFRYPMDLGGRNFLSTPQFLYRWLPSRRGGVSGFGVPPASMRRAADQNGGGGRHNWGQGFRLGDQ
UniProt Q9BTE7: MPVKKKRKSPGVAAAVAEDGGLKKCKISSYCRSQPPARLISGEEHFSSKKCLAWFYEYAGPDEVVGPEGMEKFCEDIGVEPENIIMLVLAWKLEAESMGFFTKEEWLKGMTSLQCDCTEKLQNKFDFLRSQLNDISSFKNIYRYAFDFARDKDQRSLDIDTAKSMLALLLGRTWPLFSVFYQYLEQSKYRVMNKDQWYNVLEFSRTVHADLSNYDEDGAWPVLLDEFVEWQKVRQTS
UniProt Q9H0S4: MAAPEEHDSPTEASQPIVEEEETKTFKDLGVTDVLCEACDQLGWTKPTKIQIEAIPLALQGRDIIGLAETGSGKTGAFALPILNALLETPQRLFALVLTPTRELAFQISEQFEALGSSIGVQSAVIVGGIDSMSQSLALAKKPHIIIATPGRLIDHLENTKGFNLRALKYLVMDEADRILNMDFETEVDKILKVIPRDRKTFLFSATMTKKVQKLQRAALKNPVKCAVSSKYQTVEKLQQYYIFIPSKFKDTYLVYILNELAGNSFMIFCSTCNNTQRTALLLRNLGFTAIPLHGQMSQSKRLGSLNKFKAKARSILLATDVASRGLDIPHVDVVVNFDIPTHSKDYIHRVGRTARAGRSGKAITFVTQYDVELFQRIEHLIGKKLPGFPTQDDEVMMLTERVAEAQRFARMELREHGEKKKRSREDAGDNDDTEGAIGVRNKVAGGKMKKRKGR
UniProt Q66K64, whole entry, looked up: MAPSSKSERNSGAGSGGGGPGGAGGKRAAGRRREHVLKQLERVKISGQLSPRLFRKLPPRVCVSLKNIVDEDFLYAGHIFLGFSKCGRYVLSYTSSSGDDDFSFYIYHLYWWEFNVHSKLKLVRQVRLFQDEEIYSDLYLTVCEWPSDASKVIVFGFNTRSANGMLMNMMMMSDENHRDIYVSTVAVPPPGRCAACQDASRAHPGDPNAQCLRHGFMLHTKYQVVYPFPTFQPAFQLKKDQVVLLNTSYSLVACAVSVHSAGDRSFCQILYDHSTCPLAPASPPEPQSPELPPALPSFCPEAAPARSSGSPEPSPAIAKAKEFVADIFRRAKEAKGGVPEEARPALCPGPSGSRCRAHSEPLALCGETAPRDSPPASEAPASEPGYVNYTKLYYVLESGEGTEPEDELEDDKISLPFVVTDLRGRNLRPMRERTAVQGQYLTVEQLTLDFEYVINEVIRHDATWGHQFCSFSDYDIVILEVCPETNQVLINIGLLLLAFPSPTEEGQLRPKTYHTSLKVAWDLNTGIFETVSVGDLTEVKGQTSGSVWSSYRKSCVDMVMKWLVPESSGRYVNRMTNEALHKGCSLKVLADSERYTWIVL

Assays:
Assay in all cases: log2 fold change, soluble protein after heating vs DMSO (PISA); higher = thermal stabilisation; K562 lysate, 10 uM; active = over 0.2 and 3.5 SD of the protein, either way, in both replicates (recomputed)
[1] = compound: C#Cc1cccc(Nc2ncnc3cc(OCCOC)c(OCCOC)cc23)c1 [erlotinib]
Outline: (§1)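 K562 pellets were dounce-homogenised in PBS pH 7.4 with 1 mM MgCl2, and the crude extract at 1 mg/mL protein was treated with 10 μM compound for 30 min. Aliquots were heated for 3 min across 48°C-58°C, pooled, and brought to 0.5% NP-40 at 4°C; soluble protein was the supernatant after 21,000xg for 90 min. Soluble protein was quantified by TMTpro 16plex LC-MS/MS with channel sums equalised, and reported as log2 fold change in thermal stability against DMSO controls, with values from duplicates.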

[2] = compound: C/C(=N\NC(=O)C1=CC(=CC=C1)S(=O)(=O)N2CCOCC2)/C3=C(C=CC(=C3)Cl)O
Outline: as §1

[3] = compound: C1=CC(=CC=C1C2=NC3=C(N2)C=C(C=C3)C(=O)N)OC4=CC=C(C=C4)Cl
Outline: as §1

[4] = compound: C1=CC2=C(C=CC(=C2)/C=C\3/C(=O)NC(=NCC4=CC=CS4)S3)N=C1
Outline: as §1

[5] = compound: C1=CC2=NC=CN=C2C=C1/C=C/3\C(=O)NC(=O)S3
Outline: as §1

[6] = compound: C1=CC=C(C=C1)C2=NC(=C(N2)C3=CC=NC=C3)C4=CC(=C(C=C4)Cl)O
Outline: as §1

[7] = compound: C1=CC=C2C(=C1)C3=NNC4=CC=CC(=C43)C2=O
Outline: as §1

[8] = compound: C1CCN(C1)C(=O)NC2=CC=CC(=C2)NC3=NC=C(C(=N3)NCCC4=CN=CN4)Br
Outline: as §1

[9] = compound: C1CN(CCC1(CC2=CC=C(C=C2)Cl)N)C3=NC=NC4=C3C=CN4
Outline: as §1

[10] = compound: C1COCCN1CCN2C3=CC=CC=C3N=C2NC(=O)C4=CC(=CC=C4)[N+](=O)[O-] [IRAK-1-4 Inhibitor I]
Outline: as §1

[11] = compound: C=CC(=O)N1CCC[C@@H](n2nc(-c3ccc(Oc4ccccc4)cc3)c3c(N)ncnc32)C1 [ibrutinib]
Outline: as §1

[12] = compound: CC(=O)c1cnc2ccc(-c3cc(Cl)c(O)c(Cl)c3)nc2c1N[C@H]1CC[C@H](CN(C)C)CC1
Outline: as §1

[13] = compound: CC(C)(C)Cn1c(N)nc2ccc(-c3[nH]c(C(C)(C)C)nc3-c3ccc(F)cc3)nc21 [ralimetinib]
Outline: as §1

[14] = compound: CC(C)(O)CC(=O)NCCn1ccc2ncnc(Nc3ccc(Oc4cccc(C(F)(F)F)c4)c(Cl)c3)c21
Outline: as §1

[15] = compound: CC(C)C1=C2N=C(C=C(N2N=C1)NCC3=CC=CC=C3)NCCCCCCN
Outline: as §1

[16] = compound: CC1=C(C(CC(=O)N1)C2=CC=C(C=C2)C(F)(F)F)C(=O)NC3=C(C=C4C(=C3)C=NN4)F
Outline: as §1

[17] = compound: CC1=C(C2=C(C=C1)C(=O)C3=CC=CC=C3N2CCCN)C
Outline: as §1

[18] = compound: CC1=C(C=C(C=C1)NC(=O)C2=CC(=CC=C2)C(C)(C)C#N)NC3=CC4=C(C=C3)N=CN(C4=O)C
Outline: as §1

[19] = compound: CC1=C(C=C(C=C1)NC(=O)C2=CC(=CC=C2)N(C)C)NC(=O)C3=CC=C(C=C3)O
Outline: as §1

[20] = compound: CC1=CC=C(C=C1)SC2=C3C=C(SC3=CN=C2)C(=O)N
Outline: as §1

Measured: log2 fold change

DDX41 (UniProt Q9UJV9)
inactive: [1] 0.022 | [2] -0.006 | [3] 0.03 | [4] -0.009 | [5] 0.006 | [6] 0.006 | [7] -0.04 | [8] -0.031 | [9] 0.045 | [10] -0.079 | [11] -0.033 | [12] 0.01 | [13] 0.022 | [14] 0.018 | [15] 0.029 | [16] 0.013 | [17] -0.049 | [18] 0.012 | [19] 0.01 | [20] 0.024

DENND6A (UniProt Q8IWF6)
inactive: [1] -0.019 | [2] 0.232 | [3] 0.004 | [4] 0.073 | [5] 0.048 | [6] 0.024 | [7] 0.003 | [8] 0.029 | [9] 0.083 | [10] 0.025 | [11] 0.014 | [12] 0.064 | [13] 0.052 | [14] -0.047 | [15] 0.037 | [16] 0.002 | [17] -0.03 | [18] 0.001 | [19] 0.022 | [20] 0.051

DCAF8 (UniProt Q5TAQ9)
inactive: [1] -0.03 | [2] 0.05 | [3] 0.03 | [4] -0.016 | [5] -0.022 | [6] 0.047 | [7] 0.016 | [8] -0.038 | [9] 0.006 | [10] -0.026 | [11] 0.01 | [12] -0.025 | [13] -0.08 | [14] 0.411 | [15] -0.017 | [16] -0.019 | [17] -0.049 | [18] 0.01 | [19] 0.008 | [20] -0.017

DDAH2 (UniProt O95865)
inactive: [1] -0.035 | [2] -0.016 | [3] -0.04 | [4] -0.017 | [5] 0.043 | [6] 0.022 | [7] -0.016 | [8] -0.024 | [9] 0.013 | [10] 0.013 | [11] 0.018 | [12] -0.023 | [13] -0.004 | [14] -0.005 | [15] 0.002 | [16] -0.054 | [17] -0.019 | [18] -0.003 | [19] -0.046 | [20] 0.007

DDRGK1 (UniProt Q96HY6)
inactive: [1] -0.063 | [2] -0.085 | [3] 0.013 | [4] 0.012 | [5] -0.039 | [6] -0.079 | [7] -0.033 | [8] -0.021 | [9] 0 | [10] 0.019 | [11] -0.018 | [12] 0.053 | [13] 0.022 | [14] -0.048 | [15] 0.026 | [16] 0.037 | [17] -0.008 | [18] 0.03 | [19] 0.004 | [20] 0.002

DERPC (UniProt P0CG12)
inactive: [1] -0.016 | [2] -0.022 | [3] 0.069 | [4] -0.075 | [5] 0 | [6] -0.121 | [7] 0.147 | [8] -0.03 | [9] 0.008 | [10] -0.004 | [11] 0.146 | [12] -0.033 | [13] -0.029 | [14] -0.008 | [15] 0.008 | [16] -0.02 | [17] -0.068 | [18] -0.351 | [19] 0.023 | [20] 0.059

DAP3 (UniProt P51398)
inactive: [1] -0.003 | [2] -0.033 | [3] 0.079 | [4] 0.003 | [5] -0.006 | [6] -0.014 | [7] -0.026 | [8] 0.009 | [9] 0.014 | [10] 0.01 | [11] 0.006 | [12] -0.04 | [13] 0.029 | [14] -0.019 | [15] 0.013 | [16] -0.01 | [17] -0.078 | [18] 0.053 | [19] 0.031 | [20] -0.016

DCTN3 (UniProt O75935)
inactive: [1] -0.007 | [2] 0.034 | [3] -0.048 | [4] -0.001 | [5] 0.014 | [6] -0.009 | [7] -0.042 | [8] -0.001 | [9] 0.008 | [10] -0.023 | [11] 0.026 | [12] 0.008 | [13] -0.012 | [14] 0.025 | [15] -0.017 | [16] -0.077 | [17] 0.007 | [18] -0.02 | [19] -0.008 | [20] 0.007

DDX55 (UniProt Q8NHQ9)
inactive: [1] -0.003 | [2] 0.377 | [3] -0.052 | [4] -0.003 | [5] -0.008 | [6] 0.011 | [7] -0.012 | [8] -0.019 | [9] -0.002 | [10] -0.045 | [11] 0.017 | [12] -0.008 | [13] 0.018 | [14] -0.032 | [15] 0.03 | [16] 0.021 | [17] -0.046 | [18] -0.039 | [19] 0.001 | [20] 0.027

DDOST (UniProt P39656)
inactive: [1] 0.013 | [2] -0.033 | [3] -0.013 | [4] -0.026 | [5] -0.005 | [6] -0.007 | [7] -0.058 | [8] -0.019 | [9] 0.011 | [10] 0.022 | [11] 0.013 | [12] 0.005 | [13] -0.03 | [14] -0.048 | [15] -0.012 | [16] 0 | [17] -0.01 | [18] 0.024 | [19] 0 | [20] -0.014

DCAF1 (UniProt Q9Y4B6)
inactive: [1] -0.004 | [2] -0.037 | [3] 0.032 | [4] -0.001 | [5] 0 | [6] 0.003 | [7] -0.004 | [8] -0.017 | [9] -0.022 | [10] 0.017 | [11] 0.016 | [12] -0.037 | [13] 0.022 | [14] -0.034 | [15] 0.001 | [16] 0.02 | [17] -0.039 | [18] 0.01 | [19] -0.003 | [20] -0.035

Four consecutive entries already listed:
DAP3 (UniProt P51398)
inactive: [1] -0.003 | [2] -0.033 | [3] 0.079 | [4] 0.003 | [5] -0.006 | [6] -0.014 | [7] -0.026 | [8] 0.009 | [9] 0.014 | [10] 0.01 | [11] 0.006 | [12] -0.04 | [13] 0.029 | [14] -0.019 | [15] 0.013 | [16] -0.01 | [17] -0.078 | [18] 0.053 | [19] 0.031 | [20] -0.016

DCTN3 (UniProt O75935)
inactive: [1] -0.007 | [2] 0.034 | [3] -0.048 | [4] -0.001 | [5] 0.014 | [6] -0.009 | [7] -0.042 | [8] -0.001 | [9] 0.008 | [10] -0.023 | [11] 0.026 | [12] 0.008 | [13] -0.012 | [14] 0.025 | [15] -0.017 | [16] -0.077 | [17] 0.007 | [18] -0.02 | [19] -0.008 | [20] 0.007

DDX55 (UniProt Q8NHQ9)
inactive: [1] -0.003 | [2] 0.377 | [3] -0.052 | [4] -0.003 | [5] -0.008 | [6] 0.011 | [7] -0.012 | [8] -0.019 | [9] -0.002 | [10] -0.045 | [11] 0.017 | [12] -0.008 | [13] 0.018 | [14] -0.032 | [15] 0.03 | [16] 0.021 | [17] -0.046 | [18] -0.039 | [19] 0.001 | [20] 0.027

DDOST (UniProt P39656)
inactive: [1] 0.013 | [2] -0.033 | [3] -0.013 | [4] -0.026 | [5] -0.005 | [6] -0.007 | [7] -0.058 | [8] -0.019 | [9] 0.011 | [10] 0.022 | [11] 0.013 | [12] 0.005 | [13] -0.03 | [14] -0.048 | [15] -0.012 | [16] 0 | [17] -0.01 | [18] 0.024 | [19] 0 | [20] -0.014

Remaining list, next part:

DERL1 (UniProt Q9BUN8)
inactive: [1] -0.023 | [2] -0.073 | [3] 0.031 | [4] -0.112 | [5] -0.002 | [6] -0.055 | [7] -0.111 | [8] 0.01 | [9] -0.024 | [10] 0.022 | [11] 0.013 | [12] -0.01 | [13] -0.077 | [14] -0.072 | [15] -0.022 | [16] 0.041 | [17] -0.003 | [18] -0.01 | [19] 0.05 | [20] 0.036

DCUN1D5 (UniProt Q9BTE7)
inactive: [1] 0.043 | [2] -0.03 | [3] -0.017 | [4] -0.002 | [5] 0.097 | [6] -0.013 | [7] 0.007 | [8] 0.003 | [9] 0.092 | [10] -0.013 | [11] -0.129 | [12] -0.093 | [13] 0.008 | [14] 0.01 | [15] -0.028 | [16] -0.002 | [17] 0.01 | [18] 0.022 | [19] 0.077 | [20] 0.043

DDX47 (UniProt Q9H0S4)
inactive: [1] -0.025 | [2] -0.088 | [3] -0.049 | [4] -0.03 | [5] -0.028 | [6] 0.014 | [7] -0.004 | [8] 0 | [9] -0.011 | [10] -0.008 | [11] -0.002 | [12] -0.019 | [13] 0.008 | [14] -0.029 | [15] 0.069 | [16] -0.005 | [17] -0.037 | [18] -0.021 | [19] 0 | [20] -0.002

DCAF15 (UniProt Q66K64)
inactive: [1] 0.007 | [2] 0.071 | [3] 0.043 | [4] 0.028 | [5] -0.032 | [6] 0.009 | [7] -0.081 | [8] -0.04 | [9] 0.033 | [10] 0 | [11] 0.037 | [12] -0.021 | [13] -0.045 | [14] -0.047 | [15] -0.089 | [16] 0.011 | [17] -0.148 | [18] -0.06 | [19] 0.014 | [20] 0.015

DDA1 (UniProt Q9BW61)
inactive: [1] -0.004 | [2] -0.001 | [3] 0.036 | [4] -0.03 | [5] 0.008 | [6] -0.093 | [7] 0.016 | [8] -0.017 | [9] -0.01 | [10] 0.012 | [11] 0.108 | [12] -0.003 | [13] 0 | [14] 0.019 | [15] -0.072 | [16] 0.028 | [17] 0.022 | [18] 0.01 | [19] 0.018 | [20] -0.017
